The source gives many values for each of these; only a part stands here.
Test system: CVD (CHD or stroke)
Test: WOSCOPS: SNP by pravastatin treatment interaction, logistic regression (synergy index), CVD endpoint
Assay type: in vivo, human
Excerpt: CARE was a secondary prevention trial and WOSCOPS was a primary prevention trial.
The CHD endpoint was defined in the analyses herein of CARE as a composite endpoint of fatal CHD, definite non-fatal MI, or revascularization, and was defined in the analyses herein of WOSCOPS as a composite endpoint of death from CHD, nonfatal MI, or revascularization. In both the CARE and WOSCOPS analyses herein, the CVD endpoint was defined as a composite endpoint of CHD or stroke. […] Revascularization, which can include percutaneous transluminal coronary angioplasty (PTCA), stent placement, and coronary artery bypass graft (CABG), are medical interventions that indicate the presence of CHD.
Cohort and case-only study designs were used to identify SNPs associated with response to statin treatment.
For each SNP, a logistic regression model having treatment status as the dependent variable and SNP as the independent predictor variable was performed, with terms for age, sex and race included in the model as covariates. The anti-log of the regression coefficient corresponding to the SNP is an estimate of the synergy index (SI) (Davis et al., “Imputing gene-treatment interactions when the genotype distribution is unknown using case-only and putative placebo analyses-a new method for the Genetics of Hypertension Associated Treatment (GenHAT) study”, Statistics in Medicine 23: (2004), pages 2413-2427). The SI is a ratio of odds ratios: for example in the CARE and WOSCOPS studies, the SI represents the factor by which the odds-ratio of statin treatment, compared with placebo, among major homozygous individuals is multiplied by in order to obtain the odds-ratio of treatment vs. placebo among heterozygous individuals; and multiplied by a second time to obtain the odds-ratio of treatment vs. placebo in minor homozygous individuals. […] In a randomized clinical trial, genotype and treatment are independent by design.

CC[C@H](C)C(=O)O[C@H]1C[C@H](O)C=C2C=C[C@H](C)[C@H](CC[C@@H](O)C[C@@H](O)CC(=O)O)[C@H]21 [Pravastatin, pravastatin]
OR (WOSCOPS, rs7557560, allele T, REC, Imputed): 6.446 | OR (WOSCOPS, rs7562462, allele T, DOM, Imputed): 1.588 | OR (WOSCOPS, rs7607447, allele T, REC, Imputed): 1.964 | OR (WOSCOPS, rs7639053, allele A, ADD, Imputed): 1.6 | OR (WOSCOPS, rs7648163, allele C, REC, Imputed): 2.989 | OR (WOSCOPS, rs7653190, allele C, ADD, Imputed): 1.616 | OR (WOSCOPS, rs7653685, allele C, DOM, Genotyped): 2.42 | OR (WOSCOPS, rs7684899, allele C, DOM, Imputed): 0.6667 | OR (WOSCOPS, rs7701604, allele G, ADD, Imputed): 0.235 | OR (WOSCOPS, rs7701604, allele G, DOM, Imputed): 0.235 | OR (WOSCOPS, rs7703676, allele C, ADD, Imputed): 0.235 | OR (WOSCOPS, rs7703676, allele C, DOM, Imputed): 0.235 | OR (WOSCOPS, rs7711358, allele A, DOM, Imputed): 0.6113 | OR (WOSCOPS, rs7713251, allele C, REC, Imputed): 2.559 | OR (WOSCOPS, rs7737608, allele G, DOM, Imputed): 1.5 | OR (WOSCOPS, rs7762993, allele A, ADD, Imputed): 1.373 | OR (WOSCOPS, rs7762993, allele A, DOM, Imputed): 1.537 | OR (WOSCOPS, rs7767265, allele G, DOM, Imputed): 1.53 | OR (WOSCOPS, rs7771264, allele T, DOM, Imputed): 0.5507 | OR (WOSCOPS, rs7795792, allele T, REC, Imputed): 0.4161 | OR (WOSCOPS, rs7806481, allele G, REC, Imputed): 0.628 | OR (WOSCOPS, rs7808536, allele G, DOM, Imputed): 1.952 | OR (WOSCOPS, rs7814819, allele G, ADD, Imputed): 1.743 | OR (WOSCOPS, rs7814819, allele G, DOM, Imputed): 1.939 | OR (WOSCOPS, rs7815952, allele T, DOM, Imputed): 2.739 | OR (WOSCOPS, rs7834090, allele T, DOM, Imputed): 2.739 | OR (WOSCOPS, rs7859250, allele C, DOM, Imputed): 0.4711 | OR (WOSCOPS, rs7863577, allele A, ADD, Genotyped): 0.5916 | OR (WOSCOPS, rs7863577, allele A, DOM, Genotyped): 0.5571 | OR (rs152707 allele A, ADD model, Imputed): 0.7681 | OR (rs152712 allele C, ADD model, Genotyped): 0.7606 | OR (rs208026 allele A DOM, Genotyped): 1.516 | OR (rs208029 allele T DOM, Imputed): 1.45 | OR (rs208757 allele G DOM, Imputed): 1.473 | OR (rs229775 allele A REC, Imputed): 0.5915 | OR (rs229815 allele T REC, Imputed): 0.5493 | OR (rs229829 allele C REC, Imputed): 0.6223 | OR (rs229831 allele A REC, Imputed): 0.646 | OR (rs238252 allele G ADD, Imputed): 1.531 | OR (rs238252 allele G DOM, Imputed): 1.593 | OR (rs710832, allele A (A1), model REC, Genotyped, WOSCOPS): 0.256 | OR (rs742827, allele A (A1), model ADD, Imputed, WOSCOPS): 1.374 | OR (rs742827, allele A (A1), model REC, Imputed, WOSCOPS): 1.393 | OR (rs892575, Imputed, allele T, ADD model, WOSCOPS): 1.417 | OR (rs892583, Imputed, allele G, ADD model, WOSCOPS): 1.437 | OR (rs915494, Imputed, allele A, ADD model, WOSCOPS): 1.204 | OR (rs915494, Imputed, allele A, DOM model, WOSCOPS): 1.279 | OR (rs917295, Imputed, allele G, DOM model, WOSCOPS): 0.6021 | OR (rs922594, Imputed, allele T, DOM model, WOSCOPS): 0.5825 | OR (rs937890, Imputed, allele G, DOM model, WOSCOPS): 0.7037 | OR (rs949016, Imputed, allele C, ADD model, WOSCOPS): 1.437 | OR (rs966583, Imputed, allele A, ADD model, WOSCOPS): 0.7239 | OR (rs966583, Imputed, allele A, DOM model, WOSCOPS): 0.6175 | OR (rs974130, Genotyped, allele A, REC model, WOSCOPS): 2.214 | OR (rs977160, Imputed, allele T, ADD model, WOSCOPS): 1.378 | OR (rs1116596 allele T, DOM model, Imputed, WOSCOPS): 0.7035 | OR (rs1149349 allele T, DOM model, Imputed, WOSCOPS): 1.606 | OR (rs1149350 allele A, ADD model, Imputed, WOSCOPS): 1.546 | OR (rs1149350 allele A, DOM model, Imputed, WOSCOPS): 1.835 | OR (rs1429321 allele A, DOM model, Imputed): 1.545 | OR (rs1429326 allele T, ADD model, Imputed): 1.514 | OR (rs1429326 allele T, DOM model, Imputed): 1.573 | OR (rs1444741 allele A, DOM model, Imputed): 0.5155 | OR (rs1449916 allele C, DOM model, Imputed): 0.4287 | OR (rs1459523 allele A, ADD model, Imputed): 1.45 | OR (rs1476714 allele A, DOM model, Imputed): 0.6887 | OR (rs1486723 allele C, REC model, Imputed): 0.6161 | OR (rs1495375 allele A, ADD model, Imputed): 0.6996 | OR (rs1495375 allele A, DOM model, Imputed): 0.6354 | OR (rs1495381 allele T, REC model, Imputed): 1.661 | OR (rs1498061 allele C, ADD model, Imputed): 0.614 | OR (rs1498992 allele G, DOM model, Imputed): 0.7209 | OR (rs1499001 allele T, DOM model, Imputed): 0.7112 | OR (rs1512988 allele A, ADD model, Imputed): 0.6768 | OR (rs1512988 allele A, DOM model, Imputed): 0.6068 | OR (rs1512989 allele T, ADD model, Imputed): 0.6768 | OR (rs1512989 allele T, DOM model, Imputed): 0.6068 | OR (rs1512991 allele T, ADD model, Imputed): 0.7609 | OR (rs1512991 allele T, DOM model, Imputed): 0.5996 | OR (rs1524306 allele C, ADD model, Imputed): 1.457 | OR (rs1524310 allele G, ADD model, Imputed): 1.471 | OR (rs1527059 allele A, DOM model, Imputed): 0.7558 | OR (rs1535866 allele G, DOM model, Imputed): 1.83 | OR (rs1567740 allele T, ADD model, Imputed): 0.6776 | OR (rs1567740 allele T, DOM model, Imputed): 0.6103 | OR (rs1572573 allele A, DOM model, Imputed): 1.458 | OR (rs1577497 allele C, REC model, Imputed): 0.5999 | OR (rs1581514 allele T, ADD model, Imputed): 1.482 | OR (rs1582321 allele T, DOM model, Imputed): 0.6673 | OR (rs1582322 allele A, DOM model, Imputed): 0.6832 | OR (rs1582323 allele A, DOM model, Imputed): 0.6891 | OR (rs1592485 allele C, DOM model, Imputed): 0.6849 | OR (rs1600954 allele T, ADD model, Imputed): 1.458 | OR (rs1705261 allele A, REC model, Imputed): 1.6 | OR (rs1832222 allele G, DOM model, Imputed): 1.458 | OR (rs1861327 allele G DOM, Imputed): 0.6673 | OR (rs1868581 allele G ADD, Imputed): 1.471 | OR (rs1874313 allele A ADD, Imputed): 0.671 | OR (rs1874313 allele A DOM, Imputed): 0.5994 | OR (rs1876409 allele C DOM, Imputed): 0.6523 | OR (rs1913201 allele G ADD, Imputed): 0.7714 | OR (rs1913201 allele G DOM, Imputed): 0.5986 | OR (rs1936871 allele G DOM, Genotyped): 0.7159 | OR (rs1961157 allele T REC, Imputed): 0.4785 | OR (rs1987179 allele T ADD, Imputed): 0.7399 | OR (rs1987179 allele T DOM, Imputed): 0.6359 | OR (rs1990023 allele T DOM, Imputed): 0.7035 | OR (rs1995025 allele C DOM, Imputed): 1.335 | OR (rs2016194 allele G DOM, Imputed): 0.6887 | OR (rs2023651 allele T ADD, Imputed): 0.5946 | OR (rs2024902 allele A ADD, Imputed): 1.964 | OR (rs2024902 allele A DOM, Imputed): 2.136 | OR (rs2025107 allele A DOM, Imputed): 2.24 | OR (rs2025108 allele T DOM, Imputed): 2.069 | OR (rs2052428 allele C DOM, Imputed): 0.6505 | OR (rs2053230 allele C ADD, Imputed): 0.6927 | OR (rs2062448 allele T DOM, Imputed): 0.5357 | OR (rs2063420 allele C REC, Imputed): 1.886 | OR (rs2063591 allele C ADD, Imputed): 0.7822
